# The other results are listed elsewhere or left out.
# B1: PX14379D-pdi-530-26-530 (Parabacteroides distasonis) (protein)
# chain: DETVYDKLPADDFGQSTAELNALIGNSHNTMKKFWTEYMHLSECSGSMAVTPTRRGGDWYDGGQYREIYMHTWTSQTSRVKSAWKAATEAIGTCNEAIRKLQNSEILTEEEKAQDVADLRGVRAFWIYVMMDYWGNIPLLTEFHPTDKVFPGNSSRQEVFDWLIQEVEEIKDICPPATTENYGSFTQGAAYSLLAKLYLNAEAWGVTFSGNAYQKVIDNCDKVMAMGYILEPNWKDNFSVTNENSKEAILAATFSSSDTGNDGNVKNELHNNTLHYKDYLSLGITASGTWNGICAQPEYVRLFDEEDARLDGTFLTGLMIDKSTGKPIMTDHNNELNHTIDVNMIPGMEYDGTNWSAVEQHDGARCFKWEFASDLTSSMGNDFHIFRLADIYLMKAEALLRGGGSVSEATALVNTIRERGYGNSDHNYATVTLKEVQLERRLELAWEVYSRQDDIRFGCFTTGMWPQSNCERKADDYLKLLPVSQDAWQVNPNLKQNPGYAAFSK
# Columns and labels:
# Experiment in all cases: glycan array binding signal (z-score within array); higher = stronger binding
# Details in all cases: glycan notation: IUPAC condensed, linker removed
# [1] = biological target: Neu5Ac(a2-8)Neu5Ac
# How it was run: (§1)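 From the Consortium for Functional Glycomics database, 3228 arrays were curated, keeping only those whose protein sequence was available. Binding is given as a within-array Z-score averaged across arrays sharing a protein sequence and across linkers. Negative Z-scores can be read as non-binding.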
# [2] = biological target: Neu5Ac(a2-8)Neu5Ac(a2-3)Gal(b1-3)GalNAc(b1-4)[Neu5Ac(a2-3)]Gal(b1-4)Glc
# How it was run: as §1
# [3] = biological target: Neu5Ac(a2-8)Neu5Ac(a2-3)Gal(b1-3)GalNAc(b1-4)[Neu5Ac(a2-8)Neu5Ac(a2-3)]Gal(b1-4)Glc
# How it was run: as §1
# [4] = biological target: Neu5Ac(a2-8)Neu5Ac(a2-3)Gal(b1-4)Glc
# How it was run: as §1
# [5] = biological target: Neu5Ac(a2-8)Neu5Ac(a2-3)Gal(b1-4)GlcNAc
# How it was run: as §1
# [6] = biological target: Neu5Ac(a2-8)Neu5Ac(a2-3)[Gal(b1-3)GalNAc(b1-4)]Gal(b1-4)Glc
# How it was run: as §1
# [7] = biological target: Neu5Ac(a2-8)Neu5Ac(a2-3)[GalNAc(b1-4)]Gal(b1-4)Glc
# How it was run: as §1
# [8] = biological target: Neu5Ac(a2-8)Neu5Ac(a2-8)Neu5Ac
# How it was run: as §1
# [9] = biological target: Neu5Ac(a2-8)Neu5Ac(a2-8)Neu5Ac(a2-3)Gal(b1-4)Glc
# How it was run: as §1
# [10] = biological target: Neu5Ac(a2-8)Neu5Ac(a2-8)Neu5Ac(a2-3)[Gal(b1-3)GalNAc(b1-4)]Gal(b1-4)Glc
# How it was run: as §1
# [11] = biological target: Neu5Ac(a2-8)Neu5Ac(a2-8)Neu5Ac(a2-3)[GalNAc(b1-4)]Gal(b1-4)Glc
# How it was run: as §1
# [12] = biological target: Neu5Ac(a2-8)Neu5Ac(a2-8)Neu5Ac(a2-8)Neu5Ac(a2-3)[GalNAc(b1-4)]Gal(b1-4)Glc
# How it was run: as §1
# [13] = biological target: Neu5Ac(a2-8)Neu5Gc(a2-3)Gal(b1-4)GlcNAc
# How it was run: as §1
# [14] = biological target: Neu5Ac(b2-6)Gal(b1-4)GlcNAc
# How it was run: as §1
# [15] = biological target: Neu5Ac(b2-6)GalNAc
# How it was run: as §1
# [16] = biological target: Neu5Ac9Ac(a2-3)Gal(b1-3)GlcNAc
# How it was run: as §1
# [17] = biological target: Neu5Ac9Ac(a2-3)Gal(b1-4)GlcNAc
# How it was run: as §1
# [18] = biological target: Neu5Ac9Ac(a2-6)Gal(b1-4)GlcNAc
# How it was run: as §1
# [19] = biological target: Neu5Gc(a2-3)Gal(b1-3)GlcNAc
# How it was run: as §1
# [20] = biological target: Neu5Gc(a2-3)Gal(b1-3)[Fuc(a1-4)]GlcNAc
# How it was run: as §1
# [21] = biological target: Neu5Gc(a2-3)Gal(b1-4)Glc
# How it was run: as §1
# [22] = biological target: Neu5Gc(a2-3)Gal(b1-4)GlcNAc
# How it was run: as §1
# [23] = biological target: Neu5Gc(a2-3)Gal(b1-4)GlcNAc(b1-3)Gal(b1-4)GlcNAc(b1-2)Man(a1-3)[Neu5Gc(a2-3)Gal(b1-4)GlcNAc(b1-3)Gal(b1-4)GlcNAc(b1-2)Man(a1-6)]Man(b1-4)GlcNAc(b1-4)GlcNAc
# How it was run: as §1
# [24] = biological target: Neu5Gc(a2-3)Gal(b1-4)[Fuc(a1-3)]GlcNAc
# How it was run: as §1
# [25] = biological target: Neu5Gc(a2-6)Gal(b1-4)GlcNAc
# How it was run: as §1
# [26] = biological target: Neu5Gc(a2-6)GalNAc
# How it was run: as §1
# [27] = biological target: Neu5Gc(a2-8)Neu5Ac(a2-3)Gal(b1-4)GlcNAc
# How it was run: as §1
# [28] = biological target: Neu5Gc(a2-8)Neu5Gc(a2-3)Gal(b1-4)GlcNAc
# How it was run: as §1
# [29] = biological target: Neu5Gc(a2-8)Neu5Gc(a2-3)Gal(b1-4)GlcNAc(b1-3)Gal(b1-4)GlcNAc
# How it was run: as §1
# [30] = biological target: Neu5Gc(a2-8)Neu5Gc(a2-6)Gal(b1-4)GlcNAc
# How it was run: as §1
# [31] = biological target: Neu5Gc(b2-6)Gal(b1-4)GlcNAc
# How it was run: as §1
binder,measurement,setting,value
B1,glycan array binding signal (z-score),[1],-0.204
same,glycan array binding signal (z-score),[2],0.057
same,glycan array binding signal (z-score),[3],0.181
same,glycan array binding signal (z-score),[4],-0.765
same,glycan array binding signal (z-score),[5],-0.127
same,glycan array binding signal (z-score),[6],-0.342
same,glycan array binding signal (z-score),[7],-1.17
same,glycan array binding signal (z-score),[8],-0.825
same,glycan array binding signal (z-score),[9],0.309
same,glycan array binding signal (z-score),[10],-0.501
same,glycan array binding signal (z-score),[11],-0.621
same,glycan array binding signal (z-score),[12],-0.481
same,glycan array binding signal (z-score),[13],12.8
same,glycan array binding signal (z-score),[14],-0.314
same,glycan array binding signal (z-score),[15],-0.517
same,glycan array binding signal (z-score),[16],-0.269
same,glycan array binding signal (z-score),[17],-0.365
same,glycan array binding signal (z-score),[18],0.184
same,glycan array binding signal (z-score),[19],-0.296
same,glycan array binding signal (z-score),[20],-0.578
same,glycan array binding signal (z-score),[21],0.25
same,glycan array binding signal (z-score),[22],-0.002
same,glycan array binding signal (z-score),[23],1.7
same,glycan array binding signal (z-score),[24],-0.444
same,glycan array binding signal (z-score),[25],-0.019
same,glycan array binding signal (z-score),[26],-1.21
same,glycan array binding signal (z-score),[27],-0.206
same,glycan array binding signal (z-score),[28],0.148
same,glycan array binding signal (z-score),[29],-0.78
same,glycan array binding signal (z-score),[30],-0.04
same,glycan array binding signal (z-score),[31],-0.722

# In another format: results already given.
binder	measurement	setting	value
B1	glycan array binding signal (z-score)	[14]	-0.314
same	glycan array binding signal (z-score)	[22]	-0.002

# From the supplement of paper PMC8728848
